Consider 1 molecule from paper PMC6995195.

Sequences of proteins named here, by UniProt entry; tags and fusion partners are left off.
UniProt P19474: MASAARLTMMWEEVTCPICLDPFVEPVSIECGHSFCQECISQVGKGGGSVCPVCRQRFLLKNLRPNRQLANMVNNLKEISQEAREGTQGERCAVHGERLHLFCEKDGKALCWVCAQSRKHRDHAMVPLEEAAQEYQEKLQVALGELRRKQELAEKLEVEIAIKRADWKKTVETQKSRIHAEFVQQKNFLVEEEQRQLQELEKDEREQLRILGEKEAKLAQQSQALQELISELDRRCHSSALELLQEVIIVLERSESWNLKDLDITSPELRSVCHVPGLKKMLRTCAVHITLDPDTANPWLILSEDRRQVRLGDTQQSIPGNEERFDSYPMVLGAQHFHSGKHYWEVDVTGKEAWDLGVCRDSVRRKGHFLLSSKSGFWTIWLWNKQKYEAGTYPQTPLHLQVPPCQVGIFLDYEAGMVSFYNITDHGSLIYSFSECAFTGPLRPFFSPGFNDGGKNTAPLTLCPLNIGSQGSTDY

The target in the experiment is TRIM21–MYC (tripartite motif–containing 21, MYC-tagged) (UniProt P19474). Kind of experiment: affinity purification with mass spectrometry; HONE1 cells with TRIM21 (TRIM21–MYC) ectopic expression, immunoprecipitation, MS analysis; enriched protein obtained by comparing with the IgG group.

Results are given in words; binding and its absence hold for the method and conditions named. In cells and extracts the contact can be indirect. Here binding means that the protein was enriched with, or labelled near, the bait; the list need not be complete.

B1: SERPINB5 (serpin family B member 5), endogenous (protein, UniProt P36952 1-375)
chain: MDALQLANSAFAVDLFKQLCEKEPLGNVLFSPICLSTSLSLAQVGAKGDTANEIGQVLHFENVKDVPFGFQTVTSDVNKLSSFYSLKLIKRLYVDKSLNLSTEFISSTKRPYAKELETVDFKDKLEETKGQINNSIKDLTDGHFENILADNSVNDQTKILVVNAAYFVGKWMKKFSESETKECPFRVNKTDTKPVQMMNMEATFCMGNIDSINCKIIELPFQNKHLSMFILLPKDVEDESTGLEKIEKQLNSESLSQWTNPSTMANAKVKLSIPKFKVEKMIDPKACLENLGLKHIFSEDTSDFSGMSETKGVALSNVIHKVCLEITEDGGDSIEVPGARILQHKDELNADHPFIYIIRHNKTRNIIFFGKFCSP
For B1, the binding result was “binds”.
